No constants are given. Whether binding was seen depends on the method and setting. In cells and extracts the contact can be indirect. Some results given as binding are weak or reduced against the parent protein; the word gives no strength.
Legend:
[1] = target: T1, calcium and integrin binding protein-1 (CIB1) (human (endogenous in HMVEC-d)) (UniProt Q99828); experiment: co-IP; 200 µg lysate of serum-starved HMVEC-d cells (25 mM Tris-HCl pH 7.5, 150 mM NaCl, 1% NP40, 2 mM EDTA, 10% glycerol), overnight at 4°C with anti-CIB1 or anti-EphA2 antibody, protein G-sepharose, Western blot; cells mock or KSHV infected (5, 10, 30 min), infected with heparin-treated KSHV, or CIB1-shRNA transduced
T1 sequence: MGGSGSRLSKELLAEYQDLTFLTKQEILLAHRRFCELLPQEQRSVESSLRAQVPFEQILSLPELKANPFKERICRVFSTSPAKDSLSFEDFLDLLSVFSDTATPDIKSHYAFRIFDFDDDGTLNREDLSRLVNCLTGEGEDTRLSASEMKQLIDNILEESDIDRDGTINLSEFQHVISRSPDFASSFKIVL

Sequences of proteins named here, by UniProt entry; tags and fusion partners are left off. Residues count along the entry.
UniProt P29317, residues 24-976: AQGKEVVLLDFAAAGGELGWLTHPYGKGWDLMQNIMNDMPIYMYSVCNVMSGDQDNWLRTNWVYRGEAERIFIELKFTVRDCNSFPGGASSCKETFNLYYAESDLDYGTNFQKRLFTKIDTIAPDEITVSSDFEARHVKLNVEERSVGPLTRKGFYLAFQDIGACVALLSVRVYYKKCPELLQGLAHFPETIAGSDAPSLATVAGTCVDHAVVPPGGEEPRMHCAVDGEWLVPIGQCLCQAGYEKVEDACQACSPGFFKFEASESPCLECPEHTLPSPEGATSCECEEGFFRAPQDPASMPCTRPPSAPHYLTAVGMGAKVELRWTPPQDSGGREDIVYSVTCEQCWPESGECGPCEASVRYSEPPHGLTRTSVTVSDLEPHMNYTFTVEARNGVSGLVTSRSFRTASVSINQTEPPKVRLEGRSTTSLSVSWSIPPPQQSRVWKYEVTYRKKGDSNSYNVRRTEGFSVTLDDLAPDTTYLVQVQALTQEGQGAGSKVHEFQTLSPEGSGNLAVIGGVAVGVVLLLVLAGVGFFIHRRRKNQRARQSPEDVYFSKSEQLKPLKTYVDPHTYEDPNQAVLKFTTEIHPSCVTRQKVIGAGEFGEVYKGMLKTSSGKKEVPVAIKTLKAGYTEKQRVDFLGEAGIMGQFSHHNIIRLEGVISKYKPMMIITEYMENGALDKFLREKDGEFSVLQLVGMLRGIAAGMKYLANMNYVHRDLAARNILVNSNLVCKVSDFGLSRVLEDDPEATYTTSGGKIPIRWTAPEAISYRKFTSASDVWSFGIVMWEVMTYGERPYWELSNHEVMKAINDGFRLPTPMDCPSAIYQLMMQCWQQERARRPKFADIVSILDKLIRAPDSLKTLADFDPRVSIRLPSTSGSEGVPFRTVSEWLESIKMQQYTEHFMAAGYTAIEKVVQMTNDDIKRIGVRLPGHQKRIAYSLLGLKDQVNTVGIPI
UniProt O43707: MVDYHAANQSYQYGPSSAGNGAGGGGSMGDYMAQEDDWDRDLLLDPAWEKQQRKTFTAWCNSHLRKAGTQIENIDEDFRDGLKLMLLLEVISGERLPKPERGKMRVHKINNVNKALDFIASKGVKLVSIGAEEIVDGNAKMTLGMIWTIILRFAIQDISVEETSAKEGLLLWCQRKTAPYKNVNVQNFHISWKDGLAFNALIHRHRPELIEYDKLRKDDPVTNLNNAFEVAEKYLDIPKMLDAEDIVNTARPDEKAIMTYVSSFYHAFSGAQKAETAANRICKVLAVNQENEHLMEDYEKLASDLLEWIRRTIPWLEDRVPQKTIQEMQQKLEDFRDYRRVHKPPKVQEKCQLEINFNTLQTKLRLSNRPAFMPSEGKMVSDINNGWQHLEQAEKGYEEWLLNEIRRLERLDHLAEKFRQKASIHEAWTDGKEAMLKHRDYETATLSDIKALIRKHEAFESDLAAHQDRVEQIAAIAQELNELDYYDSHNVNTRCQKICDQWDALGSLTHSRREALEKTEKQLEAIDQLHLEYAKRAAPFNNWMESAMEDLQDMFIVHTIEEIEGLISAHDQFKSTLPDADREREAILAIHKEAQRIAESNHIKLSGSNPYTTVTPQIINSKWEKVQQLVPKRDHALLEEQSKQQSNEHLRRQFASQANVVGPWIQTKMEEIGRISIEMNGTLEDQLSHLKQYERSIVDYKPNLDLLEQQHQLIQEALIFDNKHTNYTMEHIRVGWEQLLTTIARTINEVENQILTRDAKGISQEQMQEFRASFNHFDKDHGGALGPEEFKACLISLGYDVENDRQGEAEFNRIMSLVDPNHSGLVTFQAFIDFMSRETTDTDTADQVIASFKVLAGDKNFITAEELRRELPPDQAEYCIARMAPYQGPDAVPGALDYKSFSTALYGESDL
UniProt P07355: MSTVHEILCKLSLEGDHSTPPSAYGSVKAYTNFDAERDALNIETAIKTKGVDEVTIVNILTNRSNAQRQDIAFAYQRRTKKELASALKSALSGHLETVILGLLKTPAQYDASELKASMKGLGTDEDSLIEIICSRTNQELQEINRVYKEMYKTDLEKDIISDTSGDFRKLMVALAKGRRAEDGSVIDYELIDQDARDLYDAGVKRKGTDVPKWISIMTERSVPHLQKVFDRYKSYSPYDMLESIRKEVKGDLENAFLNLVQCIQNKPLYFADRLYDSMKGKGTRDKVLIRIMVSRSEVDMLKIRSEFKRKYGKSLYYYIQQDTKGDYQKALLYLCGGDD
UniProt P08670: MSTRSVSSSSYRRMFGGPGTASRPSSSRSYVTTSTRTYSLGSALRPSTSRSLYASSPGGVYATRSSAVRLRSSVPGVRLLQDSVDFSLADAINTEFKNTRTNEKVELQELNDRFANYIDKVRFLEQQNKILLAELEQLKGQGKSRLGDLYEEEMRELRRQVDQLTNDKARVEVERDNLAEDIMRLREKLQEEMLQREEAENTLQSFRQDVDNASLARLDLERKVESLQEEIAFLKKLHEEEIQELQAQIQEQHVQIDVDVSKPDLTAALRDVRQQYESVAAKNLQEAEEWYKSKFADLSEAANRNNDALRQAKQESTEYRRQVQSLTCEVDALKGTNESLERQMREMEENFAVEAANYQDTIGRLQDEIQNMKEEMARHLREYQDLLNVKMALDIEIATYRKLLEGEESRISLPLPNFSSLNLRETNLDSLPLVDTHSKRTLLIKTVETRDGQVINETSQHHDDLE
UniProt P35579: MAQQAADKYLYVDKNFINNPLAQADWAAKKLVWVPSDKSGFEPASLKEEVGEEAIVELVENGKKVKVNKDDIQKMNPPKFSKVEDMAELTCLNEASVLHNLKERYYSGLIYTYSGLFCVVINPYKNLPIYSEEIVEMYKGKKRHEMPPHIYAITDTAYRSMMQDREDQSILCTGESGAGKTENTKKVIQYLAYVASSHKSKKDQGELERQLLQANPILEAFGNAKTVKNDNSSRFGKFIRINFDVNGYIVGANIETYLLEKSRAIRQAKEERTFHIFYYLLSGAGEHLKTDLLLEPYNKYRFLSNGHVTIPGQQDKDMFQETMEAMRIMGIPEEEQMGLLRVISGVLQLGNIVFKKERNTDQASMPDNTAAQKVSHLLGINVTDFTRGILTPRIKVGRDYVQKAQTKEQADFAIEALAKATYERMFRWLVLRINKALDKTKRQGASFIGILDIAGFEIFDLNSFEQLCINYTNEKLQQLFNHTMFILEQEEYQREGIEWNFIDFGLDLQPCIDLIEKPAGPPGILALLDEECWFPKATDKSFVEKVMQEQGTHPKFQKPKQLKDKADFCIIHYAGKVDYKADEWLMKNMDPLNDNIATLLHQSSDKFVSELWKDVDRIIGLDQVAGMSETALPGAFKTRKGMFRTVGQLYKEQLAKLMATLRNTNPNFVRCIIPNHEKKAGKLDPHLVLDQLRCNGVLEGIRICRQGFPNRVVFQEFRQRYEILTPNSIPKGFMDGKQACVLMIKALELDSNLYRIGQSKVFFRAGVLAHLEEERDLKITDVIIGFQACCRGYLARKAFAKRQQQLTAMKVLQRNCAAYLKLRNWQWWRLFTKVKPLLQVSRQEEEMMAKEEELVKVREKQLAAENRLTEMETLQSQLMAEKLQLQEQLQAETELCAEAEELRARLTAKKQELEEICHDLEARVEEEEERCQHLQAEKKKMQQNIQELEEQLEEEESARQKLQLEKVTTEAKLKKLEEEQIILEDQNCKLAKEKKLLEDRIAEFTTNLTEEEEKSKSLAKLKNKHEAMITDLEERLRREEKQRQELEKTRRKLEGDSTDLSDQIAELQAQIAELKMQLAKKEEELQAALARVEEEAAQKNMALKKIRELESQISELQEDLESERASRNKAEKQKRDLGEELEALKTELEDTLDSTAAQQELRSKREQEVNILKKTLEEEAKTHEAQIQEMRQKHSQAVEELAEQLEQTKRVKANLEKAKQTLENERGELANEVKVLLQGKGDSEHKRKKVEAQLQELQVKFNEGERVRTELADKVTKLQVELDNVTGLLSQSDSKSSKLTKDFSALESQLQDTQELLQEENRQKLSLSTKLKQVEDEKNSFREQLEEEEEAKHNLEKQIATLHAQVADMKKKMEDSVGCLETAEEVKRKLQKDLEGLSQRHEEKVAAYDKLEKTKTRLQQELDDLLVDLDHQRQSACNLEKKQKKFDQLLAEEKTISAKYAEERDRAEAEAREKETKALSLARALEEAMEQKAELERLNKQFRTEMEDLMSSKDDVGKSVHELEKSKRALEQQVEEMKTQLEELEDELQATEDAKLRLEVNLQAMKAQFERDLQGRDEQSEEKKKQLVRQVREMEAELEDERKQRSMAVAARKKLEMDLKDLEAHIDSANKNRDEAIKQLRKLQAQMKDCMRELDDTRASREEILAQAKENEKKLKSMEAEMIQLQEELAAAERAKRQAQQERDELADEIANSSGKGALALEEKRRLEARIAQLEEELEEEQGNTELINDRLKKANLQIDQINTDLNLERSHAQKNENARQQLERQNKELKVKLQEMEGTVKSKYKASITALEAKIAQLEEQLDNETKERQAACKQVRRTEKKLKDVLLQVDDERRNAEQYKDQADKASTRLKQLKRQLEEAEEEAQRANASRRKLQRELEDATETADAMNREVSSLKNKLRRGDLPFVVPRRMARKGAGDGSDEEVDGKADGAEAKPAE
UniProt Q05397: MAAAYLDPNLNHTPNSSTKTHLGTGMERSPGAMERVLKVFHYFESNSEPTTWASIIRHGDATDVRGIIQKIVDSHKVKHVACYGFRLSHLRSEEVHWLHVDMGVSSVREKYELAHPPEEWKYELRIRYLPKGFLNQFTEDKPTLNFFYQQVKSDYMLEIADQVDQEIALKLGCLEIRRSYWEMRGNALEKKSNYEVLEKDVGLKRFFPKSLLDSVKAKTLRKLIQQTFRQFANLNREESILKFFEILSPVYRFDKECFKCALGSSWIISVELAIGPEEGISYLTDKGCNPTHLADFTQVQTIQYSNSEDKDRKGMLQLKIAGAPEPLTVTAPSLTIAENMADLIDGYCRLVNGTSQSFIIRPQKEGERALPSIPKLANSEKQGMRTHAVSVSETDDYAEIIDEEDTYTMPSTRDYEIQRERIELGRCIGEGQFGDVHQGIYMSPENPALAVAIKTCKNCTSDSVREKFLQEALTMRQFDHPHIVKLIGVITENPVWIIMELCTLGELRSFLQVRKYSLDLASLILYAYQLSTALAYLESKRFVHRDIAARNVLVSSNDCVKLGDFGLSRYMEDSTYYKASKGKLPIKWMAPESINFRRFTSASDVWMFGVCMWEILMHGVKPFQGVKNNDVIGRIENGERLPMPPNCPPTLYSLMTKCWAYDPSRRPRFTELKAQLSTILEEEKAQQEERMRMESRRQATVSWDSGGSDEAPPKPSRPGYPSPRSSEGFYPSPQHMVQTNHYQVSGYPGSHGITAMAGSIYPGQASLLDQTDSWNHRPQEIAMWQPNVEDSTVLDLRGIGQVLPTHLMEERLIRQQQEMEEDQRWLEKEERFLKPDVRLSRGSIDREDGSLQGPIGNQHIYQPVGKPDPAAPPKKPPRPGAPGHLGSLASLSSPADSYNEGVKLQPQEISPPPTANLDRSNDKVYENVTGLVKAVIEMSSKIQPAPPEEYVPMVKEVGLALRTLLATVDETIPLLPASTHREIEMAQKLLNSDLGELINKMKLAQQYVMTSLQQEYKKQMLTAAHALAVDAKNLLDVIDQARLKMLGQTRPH

[2] = target: EphrinA2 (EphA2) (human (endogenous in HMVEC-d)) (UniProt P29317); experiment: as above
[3] = target: T1, calcium and integrin binding protein-1 (CIB1) (human (endogenous in HMVEC-d)); experiment: co-IP; data not shown; after KSHV infection

Row | Substance | binding [1] | binding [2] | binding [3]
1 | EphrinA2 (EphA2) (from UniProt P29317 24-976) (receptor) | binds | – | –
2 | alpha-actinin 4 (from UniProt O43707 1-911) | binds | – | –
3 | annexin A2 (from UniProt P07355 1-339) | binds | binds | –
4 | vimentin (from UniProt P08670 1-466) | binds | binds | –

Other lines, results leading:

Row | binding [1] | binding [2] | binding [3] | Substance
5 | binds | binds | – | myosin IIA (from UniProt P35579 1-1960)
6 | – | – | binds | focal adhesion kinase (FAK) (from UniProt Q05397 1-1052) (enzyme)

Source: paper PMC3923796
